In publication PMC5617402:
No constants are given. Whether binding was seen depends on the method and setting. In cells and extracts the contact can be indirect. Some entries that bind do so weakly or less than the wild type.

Amino acid sequences for entries named in this document (tags omitted).
UniProt Q8N6T7: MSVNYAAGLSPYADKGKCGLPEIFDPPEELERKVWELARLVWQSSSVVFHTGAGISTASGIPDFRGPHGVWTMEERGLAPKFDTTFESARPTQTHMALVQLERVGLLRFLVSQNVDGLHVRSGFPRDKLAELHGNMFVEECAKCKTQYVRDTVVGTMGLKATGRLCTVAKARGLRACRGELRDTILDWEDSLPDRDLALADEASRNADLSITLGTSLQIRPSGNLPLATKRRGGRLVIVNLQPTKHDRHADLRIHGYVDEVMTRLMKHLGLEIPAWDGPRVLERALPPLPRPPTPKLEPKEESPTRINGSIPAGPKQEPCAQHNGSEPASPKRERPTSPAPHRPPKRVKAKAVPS
UniProt O95863: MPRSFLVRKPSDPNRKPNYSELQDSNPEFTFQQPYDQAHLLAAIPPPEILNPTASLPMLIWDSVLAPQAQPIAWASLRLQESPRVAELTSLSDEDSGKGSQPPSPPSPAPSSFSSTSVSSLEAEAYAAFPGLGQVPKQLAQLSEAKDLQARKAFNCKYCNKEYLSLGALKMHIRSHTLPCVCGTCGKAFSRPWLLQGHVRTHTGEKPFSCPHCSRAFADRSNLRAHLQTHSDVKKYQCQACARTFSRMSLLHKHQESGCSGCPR
UniProt P84022: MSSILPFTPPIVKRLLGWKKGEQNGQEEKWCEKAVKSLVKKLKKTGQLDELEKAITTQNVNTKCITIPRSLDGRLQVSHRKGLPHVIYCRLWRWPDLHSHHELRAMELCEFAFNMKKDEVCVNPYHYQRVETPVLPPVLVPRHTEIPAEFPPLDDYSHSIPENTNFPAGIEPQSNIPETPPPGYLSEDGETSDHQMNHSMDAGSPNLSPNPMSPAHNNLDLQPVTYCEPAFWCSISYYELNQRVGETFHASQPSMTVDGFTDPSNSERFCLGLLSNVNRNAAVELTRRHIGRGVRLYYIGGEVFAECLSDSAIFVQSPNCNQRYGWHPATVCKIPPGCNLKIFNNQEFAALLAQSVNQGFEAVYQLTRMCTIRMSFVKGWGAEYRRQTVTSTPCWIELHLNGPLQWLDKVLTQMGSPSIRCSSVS

Columns and labels:
[1] = molecular target: Sirtuin 6 (human (endogenous in A549)) (UniProt Q8N6T7); assay: co-IP; A549 cells treated with or without TGF-β1 (5 ng/ml) for 15 and 60 min; 400 μg total protein (NP-40 lysis buffer) precipitated with rabbit anti-Sirt6 antibody on protein G magnetic beads, Western blot
[2] = molecular target: Snail1 (human (endogenous in A549)) (UniProt O95863); assay: co-IP; A549 cells transfected with ad-GFP or ad-H133Y (catalytically inactive Sirt6), with or without TGF-β1 (5 ng/ml) for 24 h; total protein precipitated with rabbit anti-Snail1 antibody on protein G magnetic beads, Western blot
[3] = molecular target: Snail1 (human (endogenous in A549)) (UniProt O95863); assay: condition: only with Sirt6 overexpression (ad-Sirt6); co-IP; A549 cells overexpressing wild-type Sirt6 (ad-Sirt6), with TGF-β1 (5 ng/ml) for 24 h; total protein precipitated with rabbit anti-Snail1 antibody on protein G magnetic beads, Western blot

Substance | binding [1] | binding [2] | binding [3]
Smad3 (from UniProt P84022 1-425) | binds | binds | no binding
Snail1 (from UniProt O95863 1-264) | binds |  | 
